Values quoted from earlier work as cited in patent publication US6225100A, “Arylsulfotransferase” (DCV, Inc., priority 1999, dated 2001).
At least one structure is not confirmed: it was looked up by name or label, or the drawing left a doubt.

System: Eubacterium A-44 arylsulfotransferase
Settings: p-acetylphenylsulfate as donor baseline at 100% activity; Kobashi et al., 1987; cited from earlier work

**Q.** Which “specific activity as donor substrate” value does the source give for O=[N+]([O-])c1ccc(OS(=O)(=O)O)cc1 [p-nitrophenylsulfate] here?
**A.** Its value is 57%.
